# Some of the results follow.
# B1: SAOUHSC 02783 (Staphylococcus aureus), Q5HD69 (protein)
# chain: MIHSKKLTLGICLVLLIILIVGYVIMTKTNGRNAQIKDTFNQTLKLYPTKNLDDFYDKEGFRDQEFKKGDKGTWIVNSEMVIEPKGKDMETRGMVLYINRNTRTTKGYYFISEMTDDSNGRPKDDEKRYPVKMEHNKIIPTKPLPNDKLKKEIENFKFFVQYGNFKDINDYKDGDISYNPNVPSYSAKYQLNNDDYNVQQLRKRYDIPTKQAPKLLLKGDGDLKGSSVGSRSLEFTFVENKEENIYFTDSVQYTPSEDTRYESN
# Key:
# Assay in all cases: glycan array binding signal (z-score within array); higher = stronger binding
# Conditions in all cases: glycan notation: IUPAC condensed, linker removed
# [1] = molecular target: Fuc(a1-2)Gal
# In short: (§1)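 Arrays were curated from the Consortium for Functional Glycomics database, 3228 in total, and kept only where the protein sequence was available. Binding is expressed as a within-array Z-score. This score was averaged across arrays of the same protein sequence at different concentrations or buffers and across linkers, and negative values can be read as non-binding.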
# [2] = molecular target: Fuc(a1-2)Gal(b1-3)GalNAc
# In short: as §1
# [3] = molecular target: Fuc(a1-2)Gal(b1-3)GalNAc(a1-3)[Fuc(a1-2)]Gal(b1-4)Glc
# In short: as §1
# [4] = molecular target: Fuc(a1-2)Gal(b1-3)GalNAc(a1-3)[Fuc(a1-2)]Gal(b1-4)GlcNAc
# In short: as §1
# [5] = molecular target: Fuc(a1-2)Gal(b1-3)GalNAc(b1-3)Gal
# In short: as §1
# [6] = molecular target: Fuc(a1-2)Gal(b1-3)GalNAc(b1-3)Gal(a1-4)Gal(b1-4)Glc
# In short: as §1
# [7] = molecular target: Fuc(a1-2)Gal(b1-3)GalNAc(b1-4)[Neu5Ac(a2-3)]Gal(b1-4)Glc
# In short: as §1
# [8] = molecular target: Fuc(a1-2)Gal(b1-3)GlcNAc
# In short: as §1
# [9] = molecular target: Fuc(a1-2)Gal(b1-3)GlcNAc(b1-2)Man(a1-3)[Fuc(a1-2)Gal(b1-3)GlcNAc(b1-2)Man(a1-6)]Man(b1-4)GlcNAc(b1-4)GlcNAc
# In short: as §1
# [10] = molecular target: Fuc(a1-2)Gal(b1-3)GlcNAc(b1-2)Man(a1-3)[Fuc(a1-2)Gal(b1-3)GlcNAc(b1-2)Man(a1-6)]Man(b1-4)GlcNAc(b1-4)[Fuc(a1-6)]GlcNAc
# In short: as §1
# [11] = molecular target: Fuc(a1-2)Gal(b1-3)GlcNAc(b1-3)Gal(b1-4)Glc
# In short: as §1
# [12] = molecular target: Fuc(a1-2)Gal(b1-3)GlcNAc(b1-3)GalNAc
# In short: as §1
# [13] = molecular target: Fuc(a1-2)Gal(b1-3)GlcNAc(b1-3)[Fuc(a1-2)Gal(b1-3)GlcNAc(b1-6)]GalNAc
# In short: as §1
# [14] = molecular target: Fuc(a1-2)Gal(b1-3)GlcNAc(b1-3)[Gal(b1-4)GlcNAc(b1-6)]Gal(b1-4)Glc
# In short: as §1
# [15] = molecular target: Fuc(a1-2)Gal(b1-3)GlcNAc(b1-3)[Neu5Ac(a2-6)Gal(b1-4)GlcNAc(b1-6)]Gal(b1-4)Glc
# In short: as §1
# [16] = molecular target: Fuc(a1-2)Gal(b1-3)GlcNAc6S
# In short: as §1
# [17] = molecular target: Fuc(a1-2)Gal(b1-3)[Fuc(a1-4)]GlcNAc
# In short: as §1
# [18] = molecular target: Fuc(a1-2)Gal(b1-3)[Fuc(a1-4)]GlcNAc(b1-2)Man(a1-3)[Fuc(a1-2)Gal(b1-3)[Fuc(a1-4)]GlcNAc(b1-2)Man(a1-3)]Man(b1-4)GlcNAc(b1-4)GlcNAc
# In short: as §1
# [19] = molecular target: Fuc(a1-2)Gal(b1-3)[Fuc(a1-4)]GlcNAc(b1-2)Man(a1-3)[Fuc(a1-2)Gal(b1-3)[Fuc(a1-4)]GlcNAc(b1-2)Man(a1-6)]Man(b1-4)GlcNAc(b1-4)[Fuc(a1-6)]GlcNAc(b1-4)[Fuc(a1-6)]GlcNAc
# In short: as §1
# [20] = molecular target: Fuc(a1-2)Gal(b1-3)[Fuc(a1-4)]GlcNAc(b1-3)[Fuc(a1-3)[Gal(b1-4)]GlcNAc(b1-6)]Gal(b1-4)Glc
# In short: as §1
# [21] = molecular target: Fuc(a1-2)Gal(b1-3)[Fuc(a1-4)]GlcNAc(b1-3)[Gal(b1-4)GlcNAc(b1-6)]Gal(b1-4)Glc
# In short: as §1
# [22] = molecular target: Fuc(a1-2)Gal(b1-4)Glc
# In short: as §1
# [23] = molecular target: Fuc(a1-2)Gal(b1-4)Glc6S
# In short: as §1
# [24] = molecular target: Fuc(a1-2)Gal(b1-4)GlcNAc
# In short: as §1
# [25] = molecular target: Fuc(a1-2)Gal(b1-4)GlcNAc(b1-2)Man
# In short: as §1
# [26] = molecular target: Fuc(a1-2)Gal(b1-4)GlcNAc(b1-2)Man(a1-3)[Fuc(a1-2)Gal(b1-4)GlcNAc(b1-2)Man(a1-6)]Man(b1-4)GlcNAc(b1-4)GlcNAc
# In short: as §1
# [27] = molecular target: Fuc(a1-2)Gal(b1-4)GlcNAc(b1-2)Man(a1-3)[Fuc(a1-2)Gal(b1-4)GlcNAc(b1-2)Man(a1-6)]Man(b1-4)GlcNAc(b1-4)[Fuc(a1-6)]GlcNAc
# In short: as §1
# [28] = molecular target: Fuc(a1-2)Gal(b1-4)GlcNAc(b1-2)[Fuc(a1-2)Gal(b1-4)GlcNAc(b1-4)]Man(a1-3)[Fuc(a1-2)Gal(b1-4)GlcNAc(b1-2)Man(a1-6)]Man(b1-4)GlcNAc(b1-4)GlcNAc
# In short: as §1
# [29] = molecular target: Fuc(a1-2)Gal(b1-4)GlcNAc(b1-3)Gal(b1-4)GlcNAc
# In short: as §1
# [30] = molecular target: Fuc(a1-2)Gal(b1-4)GlcNAc(b1-3)Gal(b1-4)GlcNAc(b1-2)Man(a1-3)[Fuc(a1-2)Gal(b1-4)GlcNAc(b1-3)Gal(b1-4)GlcNAc(b1-2)Man(a1-6)]Man(b1-4)GlcNAc(b1-4)GlcNAc
# In short: as §1
# [31] = molecular target: Fuc(a1-2)Gal(b1-4)GlcNAc(b1-3)Gal(b1-4)GlcNAc(b1-3)Gal(b1-4)GlcNAc
# In short: as §1
# [32] = molecular target: Fuc(a1-2)Gal(b1-4)GlcNAc(b1-3)GalNAc
# In short: as §1
# [33] = molecular target: Fuc(a1-2)Gal(b1-4)GlcNAc(b1-3)[Fuc(a1-2)Gal(b1-4)GlcNAc(b1-6)]GalNAc
# In short: as §1
# [34] = molecular target: Fuc(a1-2)Gal(b1-4)GlcNAc(b1-3)[Fuc(a1-3)[Gal(b1-4)]GlcNAc(b1-6)]Gal(b1-4)Glc
# In short: as §1
# [35] = molecular target: Fuc(a1-2)Gal(b1-4)GlcNAc(b1-6)GalNAc
# In short: as §1
# [36] = molecular target: Fuc(a1-2)Gal(b1-4)GlcNAc6S
# In short: as §1
# [37] = molecular target: Fuc(a1-2)Gal(b1-4)[Fuc(a1-3)]GlcNAc
# In short: as §1
# [38] = molecular target: Fuc(a1-2)Gal(b1-4)[Fuc(a1-3)]GlcNAc(b1-2)Man(a1-3)[Fuc(a1-2)Gal(b1-4)[Fuc(a1-3)]GlcNAc(b1-2)Man(a1-6)]Man(b1-4)GlcNAc(b1-4)[Fuc(a1-6)]GlcNAc
# In short: as §1
# [39] = molecular target: Fuc(a1-2)Gal(b1-4)[Fuc(a1-3)]GlcNAc(b1-2)[Fuc(a1-2)Gal(b1-4)[Fuc(a1-3)]GlcNAc(b1-4)]Man(a1-3)[Fuc(a1-2)Gal(b1-4)[Fuc(a1-3)]GlcNAc(b1-2)Man(a1-6)]Man(b1-4)GlcNAc(b1-4)GlcNAc
# In short: as §1
# [40] = molecular target: Fuc(a1-2)Gal(b1-4)[Fuc(a1-3)]GlcNAc(b1-3)Gal(b1-4)[Fuc(a1-3)]GlcNAc
# In short: as §1
# [41] = molecular target: Fuc(a1-2)Gal(b1-4)[Fuc(a1-3)]GlcNAc(b1-3)Gal(b1-4)[Fuc(a1-3)]GlcNAc(b1-3)Gal(b1-4)[Fuc(a1-3)]GlcNAc
# In short: as §1
# [42] = molecular target: Fuc(a1-2)Gal(b1-4)[Fuc(a1-3)]GlcNAc(b1-3)GalNAc
# In short: as §1
# [43] = molecular target: Fuc(a1-2)Gal(b1-4)[Fuc(a1-3)]GlcNAc(b1-3)[Neu5Ac(a2-6)Gal(b1-4)GlcNAc(b1-6)]Gal(b1-4)Glc
# In short: as §1
# [44] = molecular target: Fuc(a1-2)Gal3S(b1-4)GlcNAc
# In short: as §1
# [45] = molecular target: Fuc(a1-2)Gal6S(b1-3)GlcNAc
# In short: as §1
binder,measurement,setting,value
B1,glycan array binding signal (z-score),[1],0.572
same,glycan array binding signal (z-score),[2],-0.714
same,glycan array binding signal (z-score),[3],-1.02
same,glycan array binding signal (z-score),[4],-1.12
same,glycan array binding signal (z-score),[5],0.119
same,glycan array binding signal (z-score),[6],0.489
same,glycan array binding signal (z-score),[7],0.071
same,glycan array binding signal (z-score),[8],-0.076
same,glycan array binding signal (z-score),[9],0.299
same,glycan array binding signal (z-score),[10],2.61
same,glycan array binding signal (z-score),[11],-0.206
same,glycan array binding signal (z-score),[12],-0.771
same,glycan array binding signal (z-score),[13],2.12
same,glycan array binding signal (z-score),[14],1.13
same,glycan array binding signal (z-score),[15],-0.854
same,glycan array binding signal (z-score),[16],-1.79
same,glycan array binding signal (z-score),[17],-0.029
same,glycan array binding signal (z-score),[18],0.584
same,glycan array binding signal (z-score),[19],-0.125
same,glycan array binding signal (z-score),[20],-0.339
same,glycan array binding signal (z-score),[21],-0.055
same,glycan array binding signal (z-score),[22],-0.376
same,glycan array binding signal (z-score),[23],0.362
same,glycan array binding signal (z-score),[24],-0.378
same,glycan array binding signal (z-score),[25],0.376
same,glycan array binding signal (z-score),[26],0.526
same,glycan array binding signal (z-score),[27],1.56
same,glycan array binding signal (z-score),[28],1.41
same,glycan array binding signal (z-score),[29],-1.87
same,glycan array binding signal (z-score),[30],-0.248
same,glycan array binding signal (z-score),[31],0.25
same,glycan array binding signal (z-score),[32],0.108
same,glycan array binding signal (z-score),[33],2.08
same,glycan array binding signal (z-score),[34],-0.255
same,glycan array binding signal (z-score),[35],-1.38
same,glycan array binding signal (z-score),[36],0.902
same,glycan array binding signal (z-score),[37],-0.193
same,glycan array binding signal (z-score),[38],-0.63
same,glycan array binding signal (z-score),[39],4.52
same,glycan array binding signal (z-score),[40],-0.653
same,glycan array binding signal (z-score),[41],-0.71
same,glycan array binding signal (z-score),[42],0.185
same,glycan array binding signal (z-score),[43],-0.818
same,glycan array binding signal (z-score),[44],-0.755
same,glycan array binding signal (z-score),[45],-0.876

# An excerpt of these results, tab-delimited.
binder	measurement	setting	value
B1	glycan array binding signal (z-score)	[11]	-0.206
same	glycan array binding signal (z-score)	[12]	-0.771

# Reference: the supplement of paper PMC8728848
